Assay results: patent publication US20150258127A1, “METHODS FOR PREVENTING ANTIPHOSPHOLIPID SYNDROME (APS)” (INSERM (INSTITUT NATIONAL DE LA SANTÉ ET DE LA RECHERCHE …, priority 2012, published 2015)

Test system: P-AKT (Ser^473) (mTORC2) in human micro vascular endothelial cells (HMEC)
Assay: Western blot of P-AKT (Ser473) (mTORC2) in HMEC exposed to APA IgG
Format: cell-based
Conditions: HMEC pretreated one hour with inhibitor (PP242 0.5 μM; LY294002 20 μM), then APA IgG 5 minutes
Method: All experiments were performed in duplicates.
Western blots were performed as previously described^28. […] Images were acquired using Fusion FX7 system (Vilber Loumart) and analysed using Bio-1D software (Vilber Loumart).

## CC(C)n1nc(-c2cc3cc(O)ccc3[nH]2)c2c(N)ncnc21 [PP242]
  APA-induced AKT phosphorylation / activation of the AKT pathway: completely abolished
